The structures appear in SMILES notation. ± gives the standard deviation of the averaged measurements. In all, about 1,600 compounds were measured (“normalized intracellular growth (luminescence, IQM-normalized) in RAW264.7 macrophages”: median about 1, lowest 2% from about 0.43 on). The list shows a part of the results.

The subject of this assay is Salmonella enterica serovar Typhimurium SL1344. The assay can be described thus: normalized intracellular growth (luminescence, IQM-normalized) in RAW264.7 macrophages (fraction of plate interquartile mean); higher = more bacterial growth (less inhibition). Conditions: 10 µM.

Consider `CC(C)[C@H](N)C(=O)OCC(CO)OCn1cnc2c(=O)nc(N)[nH]c21` (some centres not stated), for which the normalized intracellular growth by setting is: (time point: T3 (3 h)) 1.03 ± 0.044; (time point: Tfinal (~6 h)) 0.89 ± 0.12.
For `Cc1c(O)c(=O)ccn1C` the same measures were 1.02 ± 0.096 and 0.877 ± 0.29.
For `CCC(=O)O[C@]1(C(=O)CCl)[C@@H](C)C[C@H]2[C@@H]3CCC4=CC(=O)C=C[C@]4(C)[C@@]3(F)[C@@H](O)C[C@@]21C` the same measures were 0.947 ± 0.04 and 1.04 ± 0.13.
On the same counts, the results for `c1ccc([C@H]2CN3CCSC3=N2)cc1` are 0.971 ± 0.087 and 1.03 ± 0.2.
Consider `COc1ccc(C2CNC(=O)C2)cc1OC1CCCC1` (configuration not stated), for which the normalized intracellular growth is, setting by setting: (time point: T3 (3 h)) 0.991 ± 0.071; (time point: Tfinal (~6 h)) 0.959 ± 0.33.
On the same counts, the results for `NC(=O)C(c1ccccc1)(c1ccccc1)[C@@H]1CCN(CCc2ccc3c(c2)CCO3)C1` are 1.07 ± 0.046 and 0.992 ± 0.29.
On the same counts, the results for `CCCNCC(O)COc1ccccc1C(=O)CCc1ccccc1` (configuration not stated) are 1.04 ± 0.066 and 1.03 ± 0.044.
On to `COc1ccccc1OCC(O)CN1CCN(CC(=O)Nc2c(C)cccc2C)CC1` (configuration not stated), for which the normalized intracellular growth runs as follows: (time point: T3 (3 h)) 1.01 ± 0.034; (time point: Tfinal (~6 h)) 1.05 ± 0.033.
For `C[C@H]1C[C@@H]2[C@H]([C@@H](O)C[C@@]3(C)[C@H]2CC[C@]3(O)C(=O)CO)[C@@]2(C)C=CC(=O)C=C12` the same measures were 1.07 ± 0.02 and 0.417 ± 0.054.
On the same counts, the results for `CC(C)NCC(O)c1ccc2ccccc2c1` (configuration not stated) are 0.937 ± 0.052 and 1.07 ± 0.029.
For `CC(=O)O[C@]1(C(C)=O)CC[C@H]2[C@@H]3C[C@H](C)C4=CC(=O)CC[C@]4(C)[C@H]3CC[C@@]21C` the same measures were 1 ± 0.042 and 0.941 ± 0.11.
Take `O=C(O)c1cc(-c2ccccc2)nc2ccccc12`: the normalized intracellular growth runs as follows: (time point: T3 (3 h)) 0.954 ± 0.013; (time point: Tfinal (~6 h)) 0.688 ± 0.24.
`CN(C)c1nc(N(C)C)nc(N(C)C)n1`: the normalized intracellular growth amounted to 0.966 ± 0.055 (time point: T3 (3 h)) and 0.963 ± 0.051 (time point: Tfinal (~6 h)).
On the same counts, the results for `CN(C)[C@@H]1C(O)=C(C(=O)NCN2CCCC2)C(=O)[C@@]2(O)C(O)=C3C(=O)c4c(O)cccc4[C@@](C)(O)[C@H]3C[C@@H]12` are 0.973 ± 0.013 and 0.683 ± 0.41.
For `Cc1c(N(C)CS(=O)(=O)O)c(=O)n(-c2ccccc2)n1C` the same measures were 0.987 ± 0.015 and 1.15 ± 0.081.
For `CC(NCCC(c1ccccc1)c1ccccc1)c1ccccc1` (configuration not stated) the same measures were 0.867 ± 0.046 and 0.974 ± 0.23.
In turn, `CCN(CC)CCc1nc(-c2ccccc2)no1` returned a normalized intracellular growth (time point: T3 (3 h)) of 1 ± 0.024 and a normalized intracellular growth (time point: Tfinal (~6 h)) of 0.786 ± 0.12.
For `CCc1cn([C@H]2C[C@H](O)[C@@H](CO)O2)c(=O)[nH]c1=O` the same measures were 1.09 ± 0.034 and 0.868 ± 0.01.
For `O=S(=O)(O)NC1CCCCC1` the same measures were 0.688 ± 0.097 and 0.748 ± 0.044.
On the same counts, the results for `O=c1oc2ccccc2c(O)c1Cc1c(O)c2ccccc2oc1=O` are 0.9837 ± 0.0082 and 0.993 ± 0.02.
For the molecule `CN1CCN(CCCN2c3ccccc3Sc3ccc(Cl)cc32)CC1`, the normalized intracellular growth (time point: T3 (3 h)) was found to be 0.985 ± 0.021 and the normalized intracellular growth (time point: Tfinal (~6 h)) stood at 0.921 ± 0.043.
For `C[C@H](CCC(=O)O)[C@H]1CC[C@H]2[C@@H]3[C@H](O)C[C@@H]4C[C@H](O)CC[C@]4(C)[C@H]3CC[C@]12C` the same measures were 1.12 ± 0.032 and 1.07 ± 0.04.
On the same counts, the results for `NCC(O)CC(=O)O` (configuration not stated) are 0.966 ± 0.067 and 1.03 ± 0.12.
Turning to `CC(=O)OCC(CCn1cnc2cnc(N)nc21)COC(C)=O`, the normalized intracellular growth reads like this: (time point: T3 (3 h)) 1 ± 0.027; (time point: Tfinal (~6 h)) 1.08 ± 0.14.
On the same counts, the results for `C1CNCCN1` are 0.991 ± 0.091 and 0.655 ± 0.077.
On the same counts, the results for `COc1c2occc2c(OC)c2c(=O)cc(C)oc12` are 1.066 ± 0.0025 and 1.04 ± 0.12.
